The target in this assay is T1, Mouse TNFα (mouse, UniProt P06804 80-235).
T1 sequence (looked up): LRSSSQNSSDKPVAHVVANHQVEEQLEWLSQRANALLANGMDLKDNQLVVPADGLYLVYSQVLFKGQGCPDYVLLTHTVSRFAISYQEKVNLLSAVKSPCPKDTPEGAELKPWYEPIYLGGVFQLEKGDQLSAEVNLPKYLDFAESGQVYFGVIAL
Nature of the assay: cross-reactivity binding profile against human and mouse TNF-alpha (FIGS. 39A-C; text cites FIG. 31).

Results are given in words; binding and its absence hold for the method and conditions named. Some binding calls cover weakened binding; strength is not graded here.

B1: TNF S17-Quad-X™ with (Gly4Ser)5 (Fc fusion)
chain: ASVNQTPRTATKETGESLTINCVLTDTHAKVFTTSWFRKNPGTTDWERMSIGGRYVESVNKGAKSFSLRIKDLTVADSATYICRAGGYLSQPRVYWDVYGAGTVLTVNGGGGSGGGGRTEPRGPTIKPCPPCKCPAPNLLGGPSVFIFPPKIKDVLMISLSPIVTCVVVDVSEDDPDVQISWFVNNVEVHTAQTQTHREDYNSTLRVVSALPIQHQDWMSGKEFKCKVNNKDLPAPIERTISKPKGSVRAPQVYVLPPPEEEMTKKQVTLTCMVTDFMPEDIYVEWTNNGKTELNYKNTEPVLDSDGSYFMYSKLRVEKKNWVERNSYSCSVVHEGLHNHHTTKSFSRTPGKGGGGSGGGGSGGGGSGGGGSGAHSASVNQTPRTATKETGESLTINCVLTDTHAKVFTTSWFRKNPGTTDWERMSIGGRYVESVNKGAKSFSLRIKDLTVADSATYICRAGGYLSQPRVYWDVYGAGTVLTVN
As to B1, the binding result was “binds”.

The values above are taken from patent US20240247058A1 (published 2024).
